From article PMC5333363
These are yes or no findings as the source states them, for the method shown. Binding seen in cells or lysates may run through a third protein. These calls come from enrichment with a bait or labelling near it, and not all partners need be listed.

Amino acid sequences for entries named in this document (tags omitted).
UniProt P22736: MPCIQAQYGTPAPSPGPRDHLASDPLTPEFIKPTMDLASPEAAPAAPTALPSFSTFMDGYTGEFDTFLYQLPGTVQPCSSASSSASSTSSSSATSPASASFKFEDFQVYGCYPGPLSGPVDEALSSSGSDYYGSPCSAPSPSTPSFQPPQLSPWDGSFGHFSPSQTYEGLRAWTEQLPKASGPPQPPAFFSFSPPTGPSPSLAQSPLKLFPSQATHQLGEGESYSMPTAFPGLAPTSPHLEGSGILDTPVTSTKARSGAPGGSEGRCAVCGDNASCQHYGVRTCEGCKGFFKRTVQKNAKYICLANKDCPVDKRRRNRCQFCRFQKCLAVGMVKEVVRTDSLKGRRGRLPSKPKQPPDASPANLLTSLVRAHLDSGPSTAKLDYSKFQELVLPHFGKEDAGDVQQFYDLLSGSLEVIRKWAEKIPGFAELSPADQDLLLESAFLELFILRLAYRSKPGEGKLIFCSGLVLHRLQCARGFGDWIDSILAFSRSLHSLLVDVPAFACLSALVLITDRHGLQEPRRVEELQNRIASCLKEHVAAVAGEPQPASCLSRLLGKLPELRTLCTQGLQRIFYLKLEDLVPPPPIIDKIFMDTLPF
UniProt P35558: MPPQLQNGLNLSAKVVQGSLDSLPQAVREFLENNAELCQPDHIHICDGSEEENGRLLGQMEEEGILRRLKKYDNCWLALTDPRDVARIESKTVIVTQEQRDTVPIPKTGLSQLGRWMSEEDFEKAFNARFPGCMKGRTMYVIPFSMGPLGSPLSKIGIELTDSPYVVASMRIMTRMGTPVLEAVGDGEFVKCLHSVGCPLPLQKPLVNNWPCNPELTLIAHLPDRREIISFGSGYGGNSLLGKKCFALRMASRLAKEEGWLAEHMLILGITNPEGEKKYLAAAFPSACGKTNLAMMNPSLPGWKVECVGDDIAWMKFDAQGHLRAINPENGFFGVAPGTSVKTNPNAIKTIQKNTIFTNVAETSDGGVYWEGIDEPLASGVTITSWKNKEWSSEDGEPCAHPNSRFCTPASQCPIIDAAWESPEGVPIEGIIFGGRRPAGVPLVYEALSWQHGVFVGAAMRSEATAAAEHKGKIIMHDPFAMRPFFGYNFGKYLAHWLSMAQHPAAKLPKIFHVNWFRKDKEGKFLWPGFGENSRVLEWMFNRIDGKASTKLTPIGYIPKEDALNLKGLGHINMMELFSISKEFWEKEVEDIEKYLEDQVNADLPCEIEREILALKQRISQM

Biological target: Flag-Nur77 (UniProt P22736)
Assay: affinity purification with mass spectrometry; Flag-Nur77 transfected (293T in the methods, SMMC-7721 in the results), precipitated with anti-Flag antibody, eluted with 200 ug/ml Flag peptide, SDS-PAGE with silver staining, visible band cut out, trypsin, LC-MS

Q: With “PEPCK1, endogenous (from UniProt P35558 1-622) (enzyme)” as the substance, how does the binding read?
A: binds
